Protein sequences, listed by entry. Tags and fused reporters are not part of them. Lines headed by an entry give the natural chain unless they say otherwise; changes in a name come on top.
UniProt Q9UNA4: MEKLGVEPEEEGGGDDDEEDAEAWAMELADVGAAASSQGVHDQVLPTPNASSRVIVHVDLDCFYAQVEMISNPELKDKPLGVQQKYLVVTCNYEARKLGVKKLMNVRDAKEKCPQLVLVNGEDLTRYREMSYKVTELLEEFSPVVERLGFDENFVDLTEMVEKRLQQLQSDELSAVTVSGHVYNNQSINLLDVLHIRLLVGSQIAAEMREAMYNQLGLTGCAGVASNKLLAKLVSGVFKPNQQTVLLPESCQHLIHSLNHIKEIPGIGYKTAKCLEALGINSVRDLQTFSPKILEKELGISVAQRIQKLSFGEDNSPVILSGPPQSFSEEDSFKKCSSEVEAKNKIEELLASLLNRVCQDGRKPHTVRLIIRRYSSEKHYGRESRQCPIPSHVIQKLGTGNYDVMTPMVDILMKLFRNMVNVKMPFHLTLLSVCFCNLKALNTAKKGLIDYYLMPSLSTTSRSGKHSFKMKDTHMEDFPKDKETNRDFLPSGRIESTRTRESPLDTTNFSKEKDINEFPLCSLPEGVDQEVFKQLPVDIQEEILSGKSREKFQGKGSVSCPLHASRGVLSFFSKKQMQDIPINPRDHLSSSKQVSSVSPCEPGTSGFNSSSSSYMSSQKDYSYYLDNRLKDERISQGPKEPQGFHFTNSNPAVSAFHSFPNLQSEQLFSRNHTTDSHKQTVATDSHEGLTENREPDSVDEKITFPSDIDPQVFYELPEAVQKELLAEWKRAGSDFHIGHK

In all, about 390,000 compounds went through this assay and about 4,000 (1%) were called active. The shares of active, inactive and inconclusive entries below differ from those in the screen. Calls come from the whole dose curve; as a rule, active = well fitted inhibition curve with a large enough effect; inconclusive = small, poorly fitted or top-dose-only effect, or another doubt; inactive = no such curve, though single readings can be large or run the other way. Potencies beside an inconclusive call are fits to weak or partial responses and may not hold up.
The compounds below were run against DNA polymerase iota (Homo sapiens) (UniProt Q9UNA4) (assay: qHTS for Inhibitors of Polymerase Iota). Conditions: Pol iota fluorescent replication assay, 10 min; series mostly up to 115 µM; activity, negative = inhibition: at the top concentration.
Outline: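 Fluorescent replication assay read twice, at 0 min and 10 min after adding 50 nM (final) substrate. Enzyme (10 nM) and compounds were first incubated 15 min at room temperature; enzyme-free buffer wells were negative controls.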
`COc1cc(CCNC2=CC(=O)c3ncccc3C2=O)ccc1O` was tested, and the Potency was active: 28.2 µM. In the case of `O=C(Cc1ccccc1)N/N=C/c1ccc(OC(=O)/C=C\c2ccco2)cc1`, the Potency is reported as inconclusive: 22.4 µM [inhibitor, full curve]. `COCCNC(=O)c1n[nH]c2ccccc12` was tested, and the Potency was inconclusive: 28.2 µM [inhibitor, partial curve, poor fit]. For `COC(=O)[C@@]1(Cc2ccccc2)[C@H]2C(=O)N(C)C(=O)[C@H]2[C@H]2CN=C(SCc3ccccc3)N21`, the Potency was inconclusive: 25.1 µM [inhibitor, single point]. For `COC(=O)C(CCSC)NC(=O)C1CCN(c2ncnc3c2nc2n3CCCCC2)CC1` (stereo not drawn), the “activity, negative = inhibition” value was inactive: 16.2%. With `Cc1cc(C(=O)COC(=O)c2ccco2)c(C)n1Cc1ccco1` the Potency was inconclusive: 25.1 µM [inhibitor, partial curve, poor fit]. In the case of `COc1ccc(C(=O)C[n+]2cc(Br)cc3ccccc32)cc1[N+](=O)[O-]`, the Potency is reported as inconclusive: 28.2 µM [inhibitor, partial curve]. With `COc1ccc(/C=C2\Oc3cc(OCC(=O)N4CC(O)C[C@H]4C(=O)O)ccc3C2=O)c(OC)c1OC` (stereo partly drawn) the Potency was inconclusive: 3.16 µM [inhibitor, full curve, poor fit]. With `CN(C)CCC(=O)N1C/C(=C/c2ccccc2)C(=O)/C(=C\c2ccccc2)C1` the Potency was inconclusive: 31.6 µM [inhibitor, partial curve, poor fit]. For `CC(=O)C1C(=O)C=C(c2ccco2)CC1c1ccccc1` (stereo not drawn), the Potency was inconclusive: 22.4 µM [inhibitor, partial curve, poor fit]. `CCn1nc(NC(=O)Cc2ccc(OC)cc2)c2cc3cc(C)ccc3nc21` was tested, and the Potency was inconclusive: 20 µM [inhibitor, partial curve, poor fit]. `O=C(COC(=O)/C=C/c1ccco1)Nc1ccc(F)cc1Cl` was tested, and the Potency was inconclusive: 3.16 µM [inhibitor, full curve]. For `COc1ccc(-n2c(C)nc3c(cnn3-c3ccc(Cl)cc3)c2=O)cc1`, the “activity, negative = inhibition” value was inactive: -6.66%. `Cc1cc(C)c2c(=O)[nH]c(SCc3ccc([N+](=O)[O-])cc3)nc2n1` was tested, and the Potency was inconclusive: 89.1 µM [inhibitor, single point]. In the case of `O=C(COC(=O)c1c(F)cccc1F)c1ccc[nH]1`, the Potency is reported as inconclusive: 79.4 µM [inhibitor, partial curve]. With `COc1cc([N+](=O)[O-])ccc1NC(=O)CCCOc1ccc(C)cc1` the Potency was inconclusive: 20 µM [inhibitor, single point]. In the case of `COc1ccc(CNC(=O)c2cnc3sc(N4CCOCC4)nn3c2=O)cc1`, the Potency is reported as inconclusive: 89.1 µM [inhibitor, single point]. `O=C(CCOc1ccccc1)N(Cc1cccnc1)c1nc2c(F)cc(F)cc2s1` was tested, and the “activity, negative = inhibition” value was inactive: 22.9%. In the case of `CN(C)c1ccc2cc(S(=O)(=O)O)cc(O)c2c1`, the Potency is reported as inconclusive: 25.1 µM [inhibitor, partial curve, poor fit]. With `Cc1ccc(CNC(=O)Cn2cc(S(=O)(=O)Cc3ccccc3Cl)c3ccccc32)cc1` the Potency was inconclusive: 89.1 µM [inhibitor, single point]. For `CCOc1ccc(NC(=O)C(CC)n2c(=O)c(-c3ccccc3NC(C)=O)nc3ccccc32)cc1` (stereo not drawn), the Potency was inconclusive: 89.1 µM [inhibitor, partial curve, poor fit]. In the case of `COc1ccc(-c2cnn3c(N)c(S(=O)(=O)C(C)(C)C)cnc23)cc1`, the Potency is reported as inconclusive: 25.1 µM [inhibitor, partial curve, poor fit]. `CCOc1ccc(NC(=O)C2CCN(C(=O)N3CC(C)Oc4ccc(Cl)cc43)CC2)cc1` (stereo not drawn) was tested, and the “activity, negative = inhibition” value was inactive: 64.5%. In the case of `O=C(NCc1ccccc1Cl)C1CCN(C(=O)c2ccco2)CC1`, the “activity, negative = inhibition” value is reported as inactive: 50.4%. `CN(C(=O)COc1cccc(C#N)c1)C1CCS(=O)(=O)C1` (stereo not drawn) was tested, and the Potency was inconclusive: 10 µM [inhibitor, partial curve, poor fit]. For `CCCn1c(CN2CCN(c3ccc(OC)cc3)CC2)nc2c1c(=O)[nH]c(=O)n2C`, the “activity, negative = inhibition” value was inactive: 4.58%. With `Cc1nc(-c2ccc(S(=O)(=O)NCC3CCN(C(=O)OC(C)(C)C)CC3)s2)cs1` the Potency was inconclusive: 17.8 µM [inhibitor, partial curve]. In the case of `Fc1ccc(C2CC(c3ccco3)=NN2c2ccccc2)cc1` (stereo not drawn), the “activity, negative = inhibition” value is reported as inactive: 11.4%. `Cn1c(=O)c2c(ncn2CC2OCCO2)n(C)c1=O` was tested, and the Potency was inconclusive: 22.4 µM [inhibitor, partial curve]. For `COc1ccc(-c2csc3ncnc(Nc4ccc(O)cc4)c23)cc1`, the “activity, negative = inhibition” value was inactive: -14.9%. For `Cc1cc2oc(C(=O)Nc3ccc(S(=O)(=O)N(C)Cc4ccccc4)cc3)cc(=O)c2cc1C`, the “activity, negative = inhibition” value was inactive: -1.53%. For `CCOC(=O)c1ccccc1NC(=O)c1ccccc1SC`, the “activity, negative = inhibition” value was inactive: -6.85%. For `COc1ccc(-c2noc(-c3ccc(NCc4cccnc4)c([N+](=O)[O-])c3)n2)cc1OC`, the “activity, negative = inhibition” value was inactive: -5.17%. With `Cc1ccccc1OCCn1c(=N)n(C(C)C)c2ccccc21` the “activity, negative = inhibition” value was inactive: 19.3%. In the case of `O=c1c2sc3ccccc3c2n(Cc2cccc(Cl)c2)c(=O)n1Cc1ccco1`, the Potency is reported as inconclusive: 89.1 µM [inhibitor, single point]. With `NNc1nccc(Nc2ccccc2C(=O)O)n1` the Potency was inconclusive: 25.1 µM [inhibitor, full curve]. For `COC(=O)N/N=C/c1cc(Br)ccc1O`, the “activity, negative = inhibition” value was inactive: -6.62%. With `O=C(NCC1CCCO1)C12CN(Cc3ccccc3)CC1C(c1cccc([N+](=O)[O-])c1)=NO2` (stereo not drawn) the Potency was inconclusive: 39.8 µM [inhibitor, single point]. In the case of `Cc1ccc(N2NC(=O)/C(=C/c3ccc(-c4ccc(Cl)c(C(=O)O)c4)o3)C2=O)cc1C`, the Potency is reported as inconclusive: 35.5 µM [inhibitor, partial curve, poor fit]. `CC(=O)c1ccc(NC(=O)c2cc3c(=O)oc4ccc(C)cc4c3s2)cc1` was tested, and the Potency was inconclusive: 14.1 µM [inhibitor, partial curve, poor fit]. `Nc1nonc1-n1nnc(C(=O)N/N=C/c2ccc(Cl)cc2Cl)c1CN1CCCC1` was tested, and the Potency was inconclusive: 89.1 µM [inhibitor, single point]. With `CCOC(=O)CCNC(=O)N1CCN(S(=O)(=O)c2ccc3c(ccn3C)c2)CC1` the “activity, negative = inhibition” value was inactive: 16.3%. With `Cc1ccc2cccc(S(=O)(=O)N3CCN(c4cccc(Cl)c4)CC3)c2n1` the Potency was inconclusive: 100 µM [inhibitor, partial curve, poor fit].
Potency is the fitted concentration of half-maximal effect.
